Data taken from the supplement of paper PMC8728848.
The other results are listed elsewhere or left out.

What was measured:
Test in all cases: glycan array binding signal (z-score within array); higher = stronger binding
Settings in all cases: glycan notation: IUPAC condensed, linker removed
[1] = biological target: Fuc(a1-2)[Gal(a1-4)]Gal(b1-4)GlcNAc
How it was run: (§1)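 Columns mapping to the same glycan were averaged after glycan names were converted to IUPAC-condensed notation. The data come from 3228 arrays in the Consortium for Functional Glycomics database, limited to those with an available protein sequence. Binding is reported as a within-array Z-score averaged across arrays of one protein sequence and across linkers.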

[2] = biological target: Fuc(a1-2)[GalNAc(a1-3)]Gal
How it was run: as §1

[3] = biological target: Fuc(a1-2)[GalNAc(a1-3)]Gal(b1-3)GalNAc(a1-3)[Fuc(a1-2)]Gal(b1-4)GlcNAc
How it was run: as §1

[4] = biological target: Fuc(a1-2)[GalNAc(a1-3)]Gal(b1-3)GalNAc(b1-3)Gal(a1-4)Gal(b1-4)Glc
How it was run: as §1

[5] = biological target: Fuc(a1-2)[GalNAc(a1-3)]Gal(b1-3)GlcNAc
How it was run: as §1

[6] = biological target: Fuc(a1-2)[GalNAc(a1-3)]Gal(b1-3)GlcNAc(b1-2)Man(a1-3)[Fuc(a1-2)[GalNAc(a1-3)]Gal(b1-3)GlcNAc(b1-2)Man(a1-6)]Man(b1-4)GlcNAc(b1-4)GlcNAc
How it was run: as §1

[7] = biological target: Fuc(a1-2)[GalNAc(a1-3)]Gal(b1-3)GlcNAc(b1-2)Man(a1-3)[Fuc(a1-2)[GalNAc(a1-3)]Gal(b1-3)GlcNAc(b1-2)Man(a1-6)]Man(b1-4)GlcNAc(b1-4)[Fuc(a1-6)]GlcNAc
How it was run: as §1

[8] = biological target: Fuc(a1-2)[GalNAc(a1-3)]Gal(b1-3)GlcNAc(b1-3)GalNAc
How it was run: as §1

[9] = biological target: Fuc(a1-2)[GalNAc(a1-3)]Gal(b1-3)GlcNAc(b1-6)GalNAc
How it was run: as §1

[10] = biological target: Fuc(a1-2)[GalNAc(a1-3)]Gal(b1-4)Glc
How it was run: as §1

[11] = biological target: Fuc(a1-2)[GalNAc(a1-3)]Gal(b1-4)GlcNAc
How it was run: as §1

[12] = biological target: Fuc(a1-2)[GalNAc(a1-3)]Gal(b1-4)GlcNAc(b1-2)Man
How it was run: as §1

[13] = biological target: Fuc(a1-2)[GalNAc(a1-3)]Gal(b1-4)GlcNAc(b1-2)Man(a1-3)[Fuc(a1-2)[GalNAc(a1-3)]Gal(b1-4)GlcNAc(b1-2)Man(a1-6)]Man(b1-4)GlcNAc(b1-4)GlcNAc
How it was run: as §1

[14] = biological target: Fuc(a1-2)[GalNAc(a1-3)]Gal(b1-4)GlcNAc(b1-2)Man(a1-3)[Fuc(a1-2)[GalNAc(a1-3)]Gal(b1-4)GlcNAc(b1-2)Man(a1-6)]Man(b1-4)GlcNAc(b1-4)[Fuc(a1-6)]GlcNAc
How it was run: as §1

[15] = biological target: Fuc(a1-2)[GalNAc(a1-3)]Gal(b1-4)GlcNAc(b1-3)Gal(b1-4)GlcNAc
How it was run: as §1

[16] = biological target: Fuc(a1-2)[GalNAc(a1-3)]Gal(b1-4)GlcNAc(b1-3)Gal(b1-4)GlcNAc(b1-3)Gal(b1-4)GlcNAc
How it was run: as §1

[17] = biological target: Fuc(a1-2)[GalNAc(a1-3)]Gal(b1-4)GlcNAc(b1-3)GalNAc
How it was run: as §1

[18] = biological target: Fuc(a1-2)[GalNAc(a1-3)]Gal(b1-4)GlcNAc(b1-3)[Fuc(a1-2)[GalNAc(a1-3)]Gal(b1-4)GlcNAc(b1-6)]GalNAc
How it was run: as §1

[19] = biological target: Fuc(a1-2)[GalNAc(a1-3)]Gal(b1-4)GlcNAc(b1-6)GalNAc
How it was run: as §1

[20] = biological target: Fuc(a1-2)[GalNAc(a1-3)]Gal(b1-4)[Fuc(a1-3)]GlcNAc
How it was run: as §1

[21] = biological target: Fuc(a1-2)[GalNAc(a1-3)]Gal(b1-4)[Fuc(a1-3)]GlcNAc(b1-3)GalNAc
How it was run: as §1

[22] = biological target: Fuc(a1-2)[GalNAc(a1-4)]Gal(b1-4)GlcNAc
How it was run: as §1

[23] = biological target: Fuc(a1-2)[GalNAc(b1-3)]Gal
How it was run: as §1

Fuc(a1-3)GlcNAc = biological target: Fuc(a1-3)GlcNAc
How it was run: as §1

[24] = biological target: Fuc(a1-3)[Gal(b1-4)]Glc6S
How it was run: as §1

[25] = biological target: Fuc(a1-3)[Gal(b1-4)]GlcNAc
How it was run: as §1

[26] = biological target: Fuc(a1-3)[Gal(b1-4)]GlcNAc(b1-2)Man
How it was run: as §1

[27] = biological target: Fuc(a1-3)[Gal(b1-4)]GlcNAc(b1-2)Man(a1-3)[Fuc(a1-3)[Gal(b1-4)]GlcNAc(b1-2)Man(a1-6)]Man(b1-4)GlcNAc(b1-4)GlcNAc
How it was run: as §1

[28] = biological target: Fuc(a1-3)[Gal(b1-4)]GlcNAc(b1-2)Man(a1-3)[Fuc(a1-3)[Gal(b1-4)]GlcNAc(b1-2)Man(a1-6)]Man(b1-4)GlcNAc(b1-4)[Fuc(a1-6)]GlcNAc
How it was run: as §1

[29] = biological target: Fuc(a1-3)[Gal(b1-4)]GlcNAc(b1-3)Gal(b1-3)[Fuc(a1-4)]GlcNAc
How it was run: as §1

[30] = biological target: Fuc(a1-3)[Gal(b1-4)]GlcNAc(b1-3)Gal(b1-4)[Fuc(a1-3)]GlcNAc
How it was run: as §1

[31] = biological target: Fuc(a1-3)[Gal(b1-4)]GlcNAc(b1-3)Gal(b1-4)[Fuc(a1-3)]GlcNAc(b1-3)Gal(b1-4)[Fuc(a1-3)]GlcNAc
How it was run: as §1

[32] = biological target: Fuc(a1-3)[Gal(b1-4)]GlcNAc(b1-3)GalNAc
How it was run: as §1

[33] = biological target: Fuc(a1-3)[Gal(b1-4)]GlcNAc(b1-6)GalNAc
How it was run: as §1

[34] = biological target: Fuc(a1-3)[Gal(b1-4)]GlcNAc(b1-6)[Gal(b1-3)GlcNAc(b1-3)]Gal(b1-4)Glc
How it was run: as §1

[35] = biological target: Fuc(a1-3)[Gal(b1-4)]GlcNAc6S
How it was run: as §1

[36] = biological target: Fuc(a1-3)[Gal3S(b1-4)]Glc
How it was run: as §1

[37] = biological target: Fuc(a1-3)[Gal3S(b1-4)]GlcNAc
How it was run: as §1

B1: Vd7LysM (Verticillium dahliae) (protein)
chain: RRGPEPKYPPAAGTSSYCSYWVDYEGDKSCSRVLEDNVVVLKDFARWNPTVGADCSGIKAGNSYCVEAFGEPEPIEVTTTTRAATTTTQPTATTTTFANGIATPQPTQSGMVTNCNKFHWIAEGVSCSQVISFQKITLADFVKWNPSVKSDCSGMWAGVNVCVGVVGSSTDTAKPTTTAPSNGVVTPQPTQPSMVTNCNKFHWIAKGVTCQQVISYQKISLADFVKWNPSVLSDCSGMWAEVQVCVGVIGSTPTTLATTTTTAGNGVSTPLPTQPGMVTNCAKFHWVAKGVTCNQIYSFQKITLEQFVSYNPTVKSDCSGMQAEVQVCVGLIAGTTPTTTRPPTTTAPGNGVSTPQPTQPGMVTNCAKFHWVAKGVTCNQIYSFQKITLEQFVSFNPTVKSDCTGMQAEVNVCVGLIGGNPTPTQTGNGIATPTPIQPGMVSNCKKFHWIAQGVTCQQVISFQKITLADFVKWNTGVGSDCRTMWAETNVCVGV
- glycan array binding signal (z-score) [1]: -0.292
- glycan array binding signal (z-score) [2]: 0.378
- glycan array binding signal (z-score) [3]: -0.428
- glycan array binding signal (z-score) [4]: -0.537
- glycan array binding signal (z-score) [5]: -1.28
- glycan array binding signal (z-score) [6]: 1.28
- glycan array binding signal (z-score) [7]: -0.558
- glycan array binding signal (z-score) [8]: -0.583
- glycan array binding signal (z-score) [9]: -0.331
- glycan array binding signal (z-score) [10]: -0.37
- glycan array binding signal (z-score) [11]: 0.25
- glycan array binding signal (z-score) [12]: 0.109
- glycan array binding signal (z-score) [13]: 0.669
- glycan array binding signal (z-score) [14]: -0.531
- glycan array binding signal (z-score) [15]: 1.94
- glycan array binding signal (z-score) [16]: 1.23
- glycan array binding signal (z-score) [17]: 0.906
- glycan array binding signal (z-score) [18]: -1.58
- glycan array binding signal (z-score) [19]: -0.162
- glycan array binding signal (z-score) [20]: 0.06
- glycan array binding signal (z-score) [21]: -0.854
- glycan array binding signal (z-score) [22]: -0.525
- glycan array binding signal (z-score) [23]: 0.38
- glycan array binding signal (z-score) (Fuc(a1-3)GlcNAc): 0.586
- glycan array binding signal (z-score) [24]: 0.721
- glycan array binding signal (z-score) [25]: -0.68
- glycan array binding signal (z-score) [26]: -0.427
- glycan array binding signal (z-score) [27]: -0.585
- glycan array binding signal (z-score) [28]: 0.984
- glycan array binding signal (z-score) [29]: 1.12
- glycan array binding signal (z-score) [30]: 0.465
- glycan array binding signal (z-score) [31]: 1.1
- glycan array binding signal (z-score) [32]: 0.444
- glycan array binding signal (z-score) [33]: -1.46
- glycan array binding signal (z-score) [34]: -0.045
- glycan array binding signal (z-score) [35]: 0.976
- glycan array binding signal (z-score) [36]: -0.272
- glycan array binding signal (z-score) [37]: 0.736
